Data from patent US6602852B1 (NST NeuroSurvival Technologies, Ltd., priority 1998, dated 2003).

Assay: peptide synthesis
Conditions: whole synthesis

| Substance | final HPLC purity [%] |
| --- | --- |
| Myristate-GGGKKKKKRFSFKKSFKLSGFSFKKNKKK(Biotin)-OH | 91.5 |
| Myristate-KKKKKRFSFKKSFKLSGFSFKKNKKK (SEQUENCE ID NO. 2)-(biotin) | 85.7 |
